PubChem BioAssay AID720505 – Drosophila RNAi Screening Center | 2013
In all, the deposit lists about 20,000 reagents; this is an unselected part of those that have a named target and a result. Of all reagents, about 2,100 (10%) are marked active. 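Raw plate signals without normalisation; calls rest on control-based scores that were not deposited; replicate 2 separates called from uncalled poorly.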 A plus sign joins genes that one reagent is predicted to hit. Not given: the amount of reagent, the time to read-out.

Aim: 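Fly regulators or components of the CRAC channel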 (primary screen)
Cells: Drosophila S2R+ cells
Knock-down reagent: long dsRNA against Drosophila genes
Challenge: thapsigargin (2 µM) in calcium-free buffer to empty internal stores, then 2 mM calcium added back
Detection: 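Fluo-4 signal in 384-well plates read on a FLIPR after thapsigargin (2 µM, calcium-free) store depletion and 2 mM calcium add-back; unnormalised mean endpoint per well; screen run twice, selected wells retested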
Scale: calcium signal: higher = more calcium entry after store depletion
Hit rule: 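About 1500 genes called as lowering calcium entry, by varying amounts, judged against per-plate control wells with STIM1 as positive and Rho1 as negative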
Calls: active = called as lowering calcium entry; inactive = not called

Target gene | amplicon | calcium signal, replicate 1 | calcium signal, replicate 2 | Call
nmdyn-D6 (GeneID 32396) | DRSC20355 | 89.3 | 147 | inactive
stil (GeneID 36380) | DRSC07699 | 159 | 122 | inactive
Upf3 (GeneID 37792) | DRSC04092 | 88.4 | 101 | inactive
CG17687 (GeneID 39495) | DRSC10279 | 98.6 | 108 | inactive
Acyp (GeneID 34807) | DRSC01861 | 67.5 | 107 | active
CG11537 (GeneID 38373) | DRSC08200 | 69.9 | 124 | active
Fer2LCH (GeneID 44965) | DRSC16672 | 115 | 104 | inactive
Cyp318a1 (GeneID 32172) | DRSC19784 | 132 | 103 | inactive
ProtA (GeneID 34866) | DRSC03372 | 91 | 118 | inactive
RpL19 (GeneID 37995) | DRSC04649 | 77 | 80 | inactive
RhoGAP18B (GeneID 32898) | DRSC19763 | 71.2 | 136 | active
RhoGAP18B (GeneID 32898) | DRSC20047 | 188 | 106 | inactive
RhoGAP18B (GeneID 32898) | DRSC20048 | 182 | 98.7 | inactive
RhoGAP18B (GeneID 32898) | DRSC20049 | 184 | 117 | inactive
CG16775 (GeneID 39993) | DRSC10225 | 121 | 155 | inactive
Rbbp5 (GeneID 40239) | DRSC11778 | 75.7 | 136 | inactive
sno (GeneID 32273) | DRSC20378 | 95.3 | 111 | inactive
DZIP1 (GeneID 42921) | DRSC14620 | 218 | 124 | inactive
Su(Tpl) (GeneID 40171) | DRSC10954 | 92 | 83.8 | inactive
RhoBTB (GeneID 40249) | DRSC11877 | 127 | 120 | inactive
ppk3 (GeneID 246504) | DRSC04275 | 164 | 205 | inactive
CG10710 (GeneID 39525) | DRSC09784 | 108 | 120 | inactive
RhoGEF4 (GeneID 38806) | DRSC11011 | 115 | 83.6 | inactive
zormin (GeneID 2769001) | DRSC08210 | 93.8 | 108 | inactive
zormin (GeneID 2769001) | DRSC08212 | 57.6 | 69.9 | active
zormin (GeneID 2769001) | DRSC08213 | 78.6 | 103 | inactive
zormin (GeneID 2769001) | DRSC08297 | 88.8 | 108 | inactive
zormin (GeneID 2769001) | DRSC08571 | 146 | 110 | inactive
zormin (GeneID 2769001) | DRSC22483 | 150 | 196 | inactive
feo (GeneID 32015) | DRSC19398 | 119 | 150 | inactive
Tsp42Ec (GeneID 35612) | DRSC06192 | 88.3 | 140 | inactive
CG3500 (GeneID 37697) | DRSC04379 | 59.1 | 182 | active
Pburs (GeneID 34845) | DRSC02483 | 79 | 113 | active
Cpr67Fa2 (GeneID 39224) | DRSC10315 | 89 | 106 | inactive
Tb (GeneID 43212) | DRSC15815 | 124 | 101 | inactive
l(3)72Dn (GeneID 39774) | DRSC10468 | 101 | 136 | inactive
CG1265 (GeneID 38517) | DRSC08288 | 108 | 105 | inactive
Dnah3 (GeneID 38586) | DRSC08513 | 79.1 | 76.6 | inactive
CG10252 (GeneID 42794) | DRSC14221 | 170 | 201 | inactive
CG33062 (GeneID 318840) | DRSC22195 | 138 | 211 | inactive
Dh44-R1 (GeneID 36601) | DRSC07172 | 150 | 123 | inactive
CG3589 (GeneID 37966) | DRSC04392 | 51.8 | 143 | active
EMC8-9 (GeneID 37635) | DRSC04380 | 144 | 80.9 | inactive
CG4456 + Hsp22 | DRSC11187 | 87.4 | 83.9 | inactive
CG4456 + Hsp22 | DRSC11192 | 99.1 | 105 | inactive
CG14903 (GeneID 42014) | DRSC15024 | 98.9 | 83.8 | inactive
CG34234 + Dh44-R2 | DRSC07278 | 126 | 183 | inactive
CG14443 (GeneID 31595) | DRSC17936 | 156 | 124 | inactive
ths (GeneID 36258) | DRSC06153 | 82.1 | 151 | inactive
ths (GeneID 36258) | DRSC23123 | 93.2 | 151 | inactive
CG7080 (GeneID 42609) | DRSC16193 | 169 | 213 | inactive
CG32369 (GeneID 38873) | DRSC10042 | 97.9 | 69.3 | inactive
CG32369 (GeneID 38873) | DRSC10834 | 67.9 | 123 | active
CG1409 (GeneID 31689) | DRSC17910 | 57.8 | 278 | active
CG32700 (GeneID 31896) | DRSC17857 | 109 | 82.3 | inactive
CG32700 (GeneID 31896) | DRSC17858 | 110 | 98.4 | inactive
Gr93b (GeneID 117472) | DRSC22063 | 99 | 270 | inactive
GstT1 (GeneID 35995) | DRSC06243 | 124 | 150 | inactive
CG10863 (GeneID 38463) | DRSC08145 | 105 | 121 | inactive
w (GeneID 31271) | DRSC18850 | 122 | 161 | inactive
ave (GeneID 246638) | DRSC05502 | 55.4 | 135 | active
RhoGAP16F (GeneID 32790) | DRSC20025 | 174 | 121 | inactive
sti (GeneID 39429) | DRSC09739 | 71.4 | 75.6 | inactive
sti (GeneID 39429) | DRSC09740 | 80.9 | 104 | inactive
Syt7 (GeneID 43783) | DRSC17130 | 127 | 151 | inactive
Syt7 (GeneID 43783) | DRSC17159 | 79.2 | 131 | inactive
dock (GeneID 33262) | DRSC00812 | 92.8 | 206 | inactive
CG5111 (GeneID 43085) | DRSC15717 | 125 | 81.3 | inactive
NO66 (GeneID 31374) | DRSC18252 | 103 | 114 | inactive
CG31948 (GeneID 326178) | DRSC00740 | 182 | 97.2 | inactive
COX4 (GeneID 35279) | DRSC02091 | 105 | 99 | inactive
Spindly (GeneID 33578) | DRSC00430 | 55.5 | 121 | active
Drsl2 (GeneID 38408) | DRSC08160 | 85.5 | 94.8 | inactive
CG13896 (GeneID 38089) | DRSC08366 | 95.4 | 146 | inactive
CG32833 (GeneID 37650) | DRSC04596 | 161 | 94.9 | inactive
Mrtf (GeneID 38338) | DRSC08263 | 60.5 | 79.4 | inactive
Mrtf (GeneID 38338) | DRSC08410 | 66.8 | 118 | inactive
Mrtf (GeneID 38338) | DRSC08411 | 89.4 | 120 | inactive
Mrtf (GeneID 38338) | DRSC23194 | 122 | 141 | inactive
CG31819 (GeneID 260658) | DRSC01532 | 155 | 97.7 | inactive
CG9917 (GeneID 32596) | DRSC20218 | 115 | 131 | inactive
CG2930 (GeneID 31341) | DRSC17730 | 134 | 167 | inactive
dgt6 (GeneID 43441) | DRSC14424 | 81.4 | 88.3 | inactive
